Literature values, collected in patent US6610324B2, “Flupirtine in the treatment of fibromyalgia and related conditions” (The McLean Hospital Corporation, priority 1999, dated 2003).
Read-outs that look alike come from different tables or passages of the source. At least one compound was matched to its structure with a doubt left.

Tested on: patients with fibromyalgia
Conditions: drug treatment for fibromyalgia, cited from earlier work

Compound	Efficacy (study method open)	Efficacy (study method db = double-blind)
N[C@@H](Cc1c[nH]c2ccc(O)cc12)C(=O)O [5-OH-L-tryptophan]	+	
CN(C)CCCC1(c2ccc(F)cc2)OCc2cc(C#N)ccc21 (centres unmarked) [citalopram]		−
O=C(c1ccc(F)cc1)C1CCN(CCn2c(=O)[nH]c3ccccc3c2=O)CC1 [katenserin]	+	
CCCCC1C(=O)N(c2ccccc2)N(c2ccccc2)C1=O [phenylbutazone]		+
C[S+](CC[C@H](N)C(=O)[O-])C[C@H]1O[C@@H](n2cnc3c(N)ncnc32)[C@H](O)[C@@H]1O (some centres unmarked) [s-adenosyl-methionine]		+
